Some of the results follow.

Common to all, as to assay: glycan array binding signal (z-score within array); higher = stronger binding
Conditions in all cases: glycan notation: IUPAC condensed, linker removed

Test [1] deals with Gal(b1-4)GlcNAc(b1-3)Gal(b1-4)GlcNAc(b1-3)Gal(b1-4)GlcNAc(b1-2)Man(a1-3)[Gal(b1-4)GlcNAc(b1-3)Gal(b1-4)GlcNAc(b1-3)Gal(b1-4)GlcNAc(b1-2)Man(a1-6)]Man(b1-4)GlcNAc(b1-4)GlcNAc. In short, it runs like this:
(§1)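 Glycan array data were curated from 3228 arrays in the Consortium for Functional Glycomics database and kept only where the protein sequence was available. Glycan names were converted to IUPAC-condensed notation, and columns mapping to the same glycan were averaged. The binding signal is a within-array Z-score, averaged across arrays of the same protein sequence at different concentrations or buffers and across linkers. Negative Z-scores can be read as non-binding.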

For test [2], the target named is Gal(b1-4)GlcNAc(b1-3)Gal(b1-4)GlcNAc(b1-3)Gal(b1-4)GlcNAc(b1-2)Man(a1-3)[Gal(b1-4)GlcNAc(b1-3)Gal(b1-4)GlcNAc(b1-3)Gal(b1-4)GlcNAc(b1-2)Man(a1-6)]Man(b1-4)GlcNAc(b1-4)[Fuc(a1-6)]GlcNAc. The essentials:
as §1

In test [3] the target is Gal(b1-4)GlcNAc(b1-3)Gal(b1-4)GlcNAc(b1-3)Gal(b1-4)GlcNAc(b1-2)[Gal(b1-4)GlcNAc(b1-3)Gal(b1-4)GlcNAc(b1-3)Gal(b1-4)GlcNAc(b1-6)]Man(a1-6)[Gal(b1-4)GlcNAc(b1-3)Gal(b1-4)GlcNAc(b1-3)Gal(b1-4)GlcNAc(b1-2)Man(a1-3)]Man(b1-4)GlcNAc(b1-4)[Fuc(a1-6)]GlcNAc. In short, it runs like this: as §1
In test [4] the target is Gal(b1-4)GlcNAc(b1-3)Gal(b1-4)GlcNAc(b1-3)Gal(b1-4)GlcNAc(b1-3)Gal(b1-4)GlcNAc(b1-2)Man(a1-3)[Gal(b1-4)GlcNAc(b1-3)Gal(b1-4)GlcNAc(b1-3)Gal(b1-4)GlcNAc(b1-3)Gal(b1-4)GlcNAc(b1-2)Man(a1-6)]Man(b1-4)GlcNAc(b1-4)GlcNAc. In short, it runs like this: as §1
Test [5] has as its target Gal(b1-4)GlcNAc(b1-3)Gal(b1-4)GlcNAc(b1-3)Gal(b1-4)GlcNAc(b1-3)Gal(b1-4)GlcNAc(b1-2)Man(a1-3)[Gal(b1-4)GlcNAc(b1-3)Gal(b1-4)GlcNAc(b1-3)Gal(b1-4)GlcNAc(b1-3)Gal(b1-4)GlcNAc(b1-2)Man(a1-6)]Man(b1-4)GlcNAc(b1-4)[Fuc(a1-6)]GlcNAc. In short, it runs like this: as §1
Test [6] addresses Gal(b1-4)GlcNAc(b1-3)Gal(b1-4)GlcNAc(b1-3)Gal(b1-4)GlcNAc(b1-3)Gal(b1-4)GlcNAc(b1-2)[Gal(b1-4)GlcNAc(b1-3)Gal(b1-4)GlcNAc(b1-3)Gal(b1-4)GlcNAc(b1-3)Gal(b1-4)GlcNAc(b1-6)]Man(a1-6)[Gal(b1-4)GlcNAc(b1-3)Gal(b1-4)GlcNAc(b1-3)Gal(b1-4)GlcNAc(b1-3)Gal(b1-4)GlcNAc(b1-2)Man(a1-3)]Man(b1-4)GlcNAc(b1-4)[Fuc(a1-6)]GlcNAc. The essentials:
as §1

Test [7] has as its target Gal(b1-4)GlcNAc(b1-3)Gal(b1-4)GlcNAc(b1-3)Gal(b1-4)GlcNAc(b1-3)Gal(b1-4)GlcNAc(b1-3)Gal(b1-4)GlcNAc(b1-2)Man(a1-3)[Gal(b1-4)GlcNAc(b1-3)Gal(b1-4)GlcNAc(b1-3)Gal(b1-4)GlcNAc(b1-3)Gal(b1-4)GlcNAc(b1-3)Gal(b1-4)GlcNAc(b1-2)Man(a1-6)]Man(b1-4)GlcNAc(b1-4)GlcNAc. In short, it runs like this: as §1
For test [8], the target named is Gal(b1-4)GlcNAc(b1-3)Gal(b1-4)GlcNAc(b1-3)Gal(b1-4)GlcNAc(b1-3)Gal(b1-4)GlcNAc(b1-3)Gal(b1-4)GlcNAc(b1-2)Man(a1-3)[Gal(b1-4)GlcNAc(b1-3)Gal(b1-4)GlcNAc(b1-3)Gal(b1-4)GlcNAc(b1-3)Gal(b1-4)GlcNAc(b1-3)Gal(b1-4)GlcNAc(b1-2)Man(a1-6)]Man(b1-4)GlcNAc(b1-4)[Fuc(a1-6)]GlcNAc. The essentials: as §1
For test [9], the target named is Gal(b1-4)GlcNAc(b1-3)Gal(b1-4)GlcNAc(b1-3)Gal(b1-4)GlcNAc(b1-3)Gal(b1-4)GlcNAc(b1-3)Gal(b1-4)GlcNAc(b1-2)[Gal(b1-4)GlcNAc(b1-3)Gal(b1-4)GlcNAc(b1-3)Gal(b1-4)GlcNAc(b1-3)Gal(b1-4)GlcNAc(b1-3)Gal(b1-4)GlcNAc(b1-6)]Man(a1-6)[Gal(b1-4)GlcNAc(b1-3)Gal(b1-4)GlcNAc(b1-3)Gal(b1-4)GlcNAc(b1-3)Gal(b1-4)GlcNAc(b1-3)Gal(b1-4)GlcNAc(b1-2)Man(a1-3)]Man(b1-4)GlcNAc(b1-4)[Fuc(a1-6)]GlcNAc. In short, it runs like this: as §1

Test [10] deals with Gal(b1-4)GlcNAc(b1-3)Gal(b1-4)GlcNAc(b1-3)Gal(b1-4)GlcNAc(b1-3)Gal(b1-4)GlcNAc(b1-3)Gal(b1-4)GlcNAc(b1-3)Gal(b1-4)GlcNAc(b1-2)Man(a1-3)[Gal(b1-4)GlcNAc(b1-3)Gal(b1-4)GlcNAc(b1-3)Gal(b1-4)GlcNAc(b1-3)Gal(b1-4)GlcNAc(b1-3)Gal(b1-4)GlcNAc(b1-3)Gal(b1-4)GlcNAc(b1-2)Man(a1-6)]Man(b1-4)GlcNAc(b1-4)GlcNAc. In short, it runs like this:
as §1

The target in test [11] is Gal(b1-4)GlcNAc(b1-3)Gal(b1-4)GlcNAc(b1-3)GalNAc. In short, it runs like this: as §1
Test [12] deals with Gal(b1-4)GlcNAc(b1-3)Gal(b1-4)GlcNAc(b1-3)[Gal(b1-4)GlcNAc(b1-3)Gal(b1-4)GlcNAc(b1-6)]GalNAc. In short, it runs like this: as §1
Test [13] concerns the target Gal(b1-4)GlcNAc(b1-3)Gal(b1-4)GlcNAc(b1-6)[Gal(b1-3)]GalNAc. In short, it runs like this: as §1
For test [14], the target named is Gal(b1-4)GlcNAc(b1-3)Gal(b1-4)[Fuc(a1-3)]GlcNAc(b1-3)Gal(b1-4)[Fuc(a1-3)]GlcNAc. The essentials: as §1
Test [15] addresses Gal(b1-4)GlcNAc(b1-3)GalNAc. In short, it runs like this: as §1
Test [16] deals with Gal(b1-4)GlcNAc(b1-3)[Fuc(a1-3)GlcNAc(b1-6)]Gal(b1-4)Glc. In short, it runs like this:
as §1

Test [17] addresses Gal(b1-4)GlcNAc(b1-3)[Gal(b1-4)GlcNAc(b1-6)]Gal(b1-4)GlcNAc. In short, it runs like this: as §1
Test [18] deals with Gal(b1-4)GlcNAc(b1-3)[GlcNAc(b1-6)]Gal(b1-4)GlcNAc. In short, it runs like this:
as §1

Test [19] addresses Gal(b1-4)GlcNAc(b1-6)Gal(b1-4)GlcNAc. The essentials:
as §1

B1: PX14343I-pdi-501-30-501 (Parabacteroides distasonis) (protein)
chain: SDQYSTETFWKTKEHASAGIMGCYNALKLWRSLHTMEFDMLTANAMPYNEANGTQAIGKGEHLSTTALIGSLWKNCYVGIGRTNTFIANVGGVDMDESEKAKMVGEAKFLRAFYYLSLVDKFGGVPLIIDAPNADEQAELPRNSKEEVVNQIVKDLEEAAAVLPDTYASSDLGRATKGAALALKARTLLYNSRWAEAAQAAKQVMESGVYQLFNDYRHFFSEDNKYNCEVIFDIEAKLPEYPTDYDQNIWRLNRPAPLKELVDTYLCVDGKTIEESPLYDPTRPYENRDPRLLKSIVCIGYPYLGKTITKEDVATTGFGVKKYTSYEDDVTIPLVERSAFNFILIRYAEVLLTYAEAQNEASGPDQSVYDAINQLRRRPDINMPEVPKGLTKDQMREVIRRERRIELTFEGLYYSDILRWKTAEKENNGMMHNYEGIEVVKRSFNPKRDYLWPIPYNQTVLNPNLEQNPNWD
For B1, the “glycan array binding signal (z-score)” value in test [1] is 1.39; in test [2], 0.323; in test [3] it was 0.543; in test [4] it was 0.75; in [5], 0.506; in [6], 0.444. Also, the “glycan array binding signal (z-score)” value in [7] is -0.336; in test [8], 0.385; in test [9] it was 1.86; in test [10] it was 0.503; in test [11], -0.109; in test [12] it was -0.056. Besides, the “glycan array binding signal (z-score)” value is 0.193 in test [13]; -0.267 in test [14]; -0.251 in [15]; -0.132 in test [16]; -0.2 in [17]; -0.011 in [18]. Moreover, the “glycan array binding signal (z-score)” value in [19] was -0.299.

Source of the values: the supplement of paper PMC8728848.
